The nature of series [1]: physchem. The following applies: buffer, pH 4.5.
Series [2] can be described thus: physchem. Conditions: buffer, pH 6.8.

Solubility data for one compound are collected here from ChEMBL document CHEMBL5036304, “One Atom Makes All the Difference: Getting a Foot in the Door between SOS1 and KRAS” (J Med Chem, 2021).

Structures are written as SMILES. ≈ marks a conversion by molar mass, not a printed value. Some results are limits rather than exact numbers.

In the case of `COc1cc2nc(C)nc(N[C@H](C)c3cc(N)cc(C(F)(F)F)c3)c2cc1O[C@H]1CCOC1`, the solubility in series [1] was above 0.1 mg/mL; in series [2], 0.084 mg/mL (≈ 182 µM).

A word on the solubility: it is the concentration that dissolves in the medium under given conditions. A high value points to a readily soluble substance.
